This series can be described thus: IBD model mouse: body weight, ingested feed, water drunk. The format is in vivo. Particulars: IBD model mice, mean ± SEM. An excerpt:
4 days before IL-10 deficient cell transplantation, total 40 SCID mice (7-week-old, were divided into the following 4 groups 1) to 4) (10 mice in each group) and acclimation to a control diet was simultaneously started. Immediately after cell transfer, the feed was changed to the test diet shown in Table 4, and free ingestion was allowed for 3 weeks. The safflower seed extract powder was the same as that in Example 8, and contained 50 wt % of γ-cyclodextrin. N-Feruloylserotonin (FS) was synthesized according to the method of Experimental Example 1. During the test diet ingestion period, the body weight, the amount of ingested feed and the amount of water drunk were measured 3 times a week to monitor the onset of the disease.
1) Normal group (normal SCID mice×control diet) 2) Control group (IL-10 deficient cell-transplanted SCID mice×control diet) 3) SSE group (IL-10 deficient cell-transplanted SCID mice×SSE diet*) 4) FS group (IL-10 deficient cell-transplanted SCID mice×FS diet**) *containing FS and p-coumaroyl serotonin (CS) at 0.10 and 0.13 wt %, respectively (based on aglycone) (total serotonin derivative content=[…]) **containing 0.4 wt % of FS aglycone

As for `COc1cc(/C=C/C(=O)NCCc2c[nH]c3ccc(O)cc23)ccc1O` [FS, N-feruloyl serotonin], the “average amount of ingested feed during test period” value was found to be 3.2 ± 0.1 g/day/mouse and the “average amount of water drunk during test period” value stood at 2.2 ± 0.2 g/day/mouse.

These data come from patent publication US20090156657A1, “ANTI-INFLAMMATORY COMPOSITION” (Ajinomoto Co., Inc., priority 2006, published 2009).
